In paper PMC3245271:
These are yes or no findings as the source states them, for the method shown. In cells and extracts the contact can be indirect. Some binding calls cover weakened binding; strength is not graded here.

Amino acid sequences for entries named in this document (tags omitted).
UniProt P78417: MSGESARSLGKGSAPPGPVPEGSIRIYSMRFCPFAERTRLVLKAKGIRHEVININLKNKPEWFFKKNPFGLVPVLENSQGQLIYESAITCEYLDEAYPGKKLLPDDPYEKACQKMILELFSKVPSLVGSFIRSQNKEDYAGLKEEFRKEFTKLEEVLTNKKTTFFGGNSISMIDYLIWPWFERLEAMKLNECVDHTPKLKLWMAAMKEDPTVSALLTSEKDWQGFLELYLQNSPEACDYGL
UniProt Q9ULZ3: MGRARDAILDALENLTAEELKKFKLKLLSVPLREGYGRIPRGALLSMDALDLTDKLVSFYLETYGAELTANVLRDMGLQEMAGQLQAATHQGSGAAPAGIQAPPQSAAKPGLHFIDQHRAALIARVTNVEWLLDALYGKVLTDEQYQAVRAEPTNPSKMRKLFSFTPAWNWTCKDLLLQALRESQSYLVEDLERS
UniProt Q96P20: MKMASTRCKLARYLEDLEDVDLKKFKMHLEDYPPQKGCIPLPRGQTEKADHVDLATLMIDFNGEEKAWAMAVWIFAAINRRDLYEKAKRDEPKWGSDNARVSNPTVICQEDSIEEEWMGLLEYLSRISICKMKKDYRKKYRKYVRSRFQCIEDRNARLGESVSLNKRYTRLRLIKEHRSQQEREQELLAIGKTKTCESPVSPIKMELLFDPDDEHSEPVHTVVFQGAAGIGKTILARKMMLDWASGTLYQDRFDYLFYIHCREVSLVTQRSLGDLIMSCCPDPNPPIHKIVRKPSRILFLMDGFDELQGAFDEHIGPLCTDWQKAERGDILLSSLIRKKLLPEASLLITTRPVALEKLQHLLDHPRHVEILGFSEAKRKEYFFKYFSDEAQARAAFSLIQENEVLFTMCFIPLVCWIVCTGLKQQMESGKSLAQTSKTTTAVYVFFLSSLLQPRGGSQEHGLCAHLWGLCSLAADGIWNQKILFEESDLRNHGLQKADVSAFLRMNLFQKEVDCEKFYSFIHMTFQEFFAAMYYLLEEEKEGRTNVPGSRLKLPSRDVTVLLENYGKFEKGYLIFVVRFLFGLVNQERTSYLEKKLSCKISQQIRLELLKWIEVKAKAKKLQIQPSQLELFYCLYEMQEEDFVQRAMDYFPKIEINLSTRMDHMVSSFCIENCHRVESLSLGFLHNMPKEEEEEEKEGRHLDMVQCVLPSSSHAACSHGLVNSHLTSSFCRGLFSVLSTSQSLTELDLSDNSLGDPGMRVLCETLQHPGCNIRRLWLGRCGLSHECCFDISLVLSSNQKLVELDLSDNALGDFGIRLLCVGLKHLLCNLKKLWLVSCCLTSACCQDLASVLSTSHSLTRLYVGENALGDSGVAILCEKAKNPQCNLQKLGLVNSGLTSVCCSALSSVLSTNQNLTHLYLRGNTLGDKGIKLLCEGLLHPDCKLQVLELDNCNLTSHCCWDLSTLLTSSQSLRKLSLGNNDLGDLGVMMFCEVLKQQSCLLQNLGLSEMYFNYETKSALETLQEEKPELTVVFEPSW

What was measured:
[1] = target: Glutathione S-Transferase Omega 1 (GSTO1), endogenous in HEK293T (human (endogenous in HEK293T)) (UniProt P78417); test: co-IP; HEK293T transfected with HA-ASC, Myc-NLRP3, GSTO1 or empty vector; low stringency lysis buffer (50 mM Hepes pH 7.5, 100 mM NaCl, 1 mM EDTA, 10% glycerol, 0.5% NP-40); precipitated with anti-GSTO1 antibody or rabbit IgG on Protein A/G beads at 4°C; Western blot with anti-HA, anti-Myc, anti-GSTO1
[2] = target: Glutathione S-Transferase Omega 1 (GSTO1), overexpressed (human) (UniProt P78417); test: as above

| binding [1] | binding [2] | Substance |
| --- | --- | --- |
| binds | binds | HA-ASC (from UniProt Q9ULZ3 1-195) |
| no binding | no binding | Myc-NLRP3 (from UniProt Q96P20 1-1036) |
